Measured values taken from paper PMC5075699.
Where “and” joins values, the source holds several entries; their conditions need not be identical. Identical values can stand only once. This continues a long series; more values of the same kind are listed elsewhere.

Key:
nontransgenic mice = test: Pilot Morris water maze #1 (spatial learning and memory); conditions: Fig 2A
nontransgenic (NTG) mice = test: Morris water maze #2, nontransgenic (NTG) mice; conditions: ISRIB 2.5mpk in DMSO/PEG
hAPP-J20 (J20) mice = test: Morris water maze #2, hAPP-J20 mice; conditions: ISRIB 2.5mpk in DMSO/PEG
[1] = ISRIB 0.1mpk, Trial 4, individual mice
[2] = ISRIB 0.1mpk, Trial 5, individual mice
[3] = ISRIB 0.1mpk, Trial 6, individual mice
[4] = ISRIB 0.25mpk, Trial 4, individual mice
[5] = ISRIB 0.25mpk, Trial 5, individual mice
[6] = ISRIB 0.25mpk, Trial 6, individual mice
[7] = Trial 1, individual mice (Fig 4A-D)
[8] = Trial 2, individual mice (Fig 4A-D)
[9] = Trial 3, individual mice (Fig 4A-D)
[10] = Trial 4, individual mice (Fig 4A-D)
[11] = Trial 5, individual mice (Fig 4A-D)
[12] = Trial 6, individual mice (Fig 4A-D)
[13] = Trial 7, individual mice (Fig 4A-D)

## O=C(COc1ccc(Cl)cc1)NC1CCC(NC(=O)COc2ccc(Cl)cc2)CC1 (centres unmarked) [ISRIB]
Nontransgenic mice; [1]
  Distance: 650.807 and 420.629 and 1636.76 and 883.886 and 1731.73
  Latency: 37.7377 and 24.2576 and 42.5092 and 93.5269
Nontransgenic mice; [2]
  Distance: 1341.81 and 699.948 and 847.159 and 1763.55 and 1150.46 and 304.987 and 381.494 and 469.803 and 108.785 and 430.196 and 1144.33 and 818.86 and 229.025 and 945.098 and 633.219
  Latency: 58.1582 and 33.3667 and 37.0704 and 120.153 and 64.5979 and 17.017 and 29.5295 and 22.9897 and 4.771 and 22.1221 and 70.8375 and 44.9449 and 8.909 and 44.1441 and 32.0988
Nontransgenic mice; [3]
  Distance: 260.293 and 214.965 and 191.256 and 557.568 and 678.487 and 393.129 and 1784.92 and 556.271 and 874.122 and 1115.97 and 139.092 and 354.939 and 445.054 and 738.774 and 116.965
  Latency: 11.2779 and 11.6783 and 7.508 and 65.8325 and 47.047 and 21.4214 and 120.153 and 26.7267 and 34.7681 and 55.3554 and 7.474 and 20.8542 and 19.9533 and 39.5395 and 6.874
Nontransgenic mice; [4]
  Distance: 2066.75 and 138.462 and 888.263 and 368.627 and 1253.81 and 1104.31 and 564.154 and 210.612 and 136.918 and 1661.81 and 1078.4 and 1565.57 and 896.6 and 308.776 and 198.869
  Latency: 120.153 (5×) and 8.175 and 17.0837 and 55.7558 and 31.4648 and 11.011 and 7.007 and 79.3794 and 36.9036 and 17.0504 and 16.6166
Nontransgenic mice; [5]
  Distance: 662.918 and 103.557 and 456.129 and 207.115 and 838.52 and 424.575 and 2434.13 and 670.464 and 143.821 and 617.072 and 478.295 and 638.17 and 467.414 and 118.041
  Latency: 33.1665 and 5.3053 and 40.7741 and 8.075 and 34.7681 and 10 and 24.5913 and 120.153 and 32.7661 and 6.006 and 54.1542 and 25.6256 and 28.8288 and 22.5559 and 4.771
Nontransgenic mice; [6]
  Distance: 178.462 and 918.246 and 95.7893 and 564.91 and 446.944 and 152.227 and 148.151 and 101.96 and 1074.16 and 283.926 and 796.318 and 498.94 and 1083.17 and 139.405 and 329.328
  Latency: 7.941 and 37.6376 and 5.3053 and 24.3243 and 20.2536 and 8.942 and 9.243 and 5.973 and 54.7548 and 12.1455 and 120.153 and 30.4304 and 48.0147 and 6.473 and 26.2596
Nontransgenic (NTG) mice; [7]
  Training Latency: 120.187 (9×) and 101.501 and 78.1448 and 53.8539
Nontransgenic (NTG) mice; [8]
  Training Latency: 21.2212 and 120.187 (8×) and 120.12 and 11.5449 and 95.7624
Nontransgenic (NTG) mice; [9]
  Training Latency: 5.138 and 120.187 (3×) and 28.028 and 4.8048 and 4.738 and 62.9296 and 14.2142 and 44.9783 and 8.075 and 11.4781
Nontransgenic (NTG) mice; [10]
  Training Latency: 48.7154 and 8.408 and 5.873 and 78.1448 and 4.2042 and 120.187 (2×) and 61.6617 and 30.6974 and 4.8048 and 101.568 and 17.8178
Nontransgenic (NTG) mice; [11]
  Training Latency: 3.737 and 28.5619 and 40.8408 and 36.1695 and 54.3877 and 120.187 (2×) and 15.4822 and 29.8298 and 12.0787 and 2.8028 and 14.3477
Nontransgenic (NTG) mice; [12]
  Training Latency: 29.5629 and 12.3457 and 4.004 and 73.4067 and 19.1525 and 3.937 and 3.27 and 35.5689 and 4.671 and 35.035 and 49.5162 and 118.385
Nontransgenic (NTG) mice; [13]
  Training Latency: 12.9463 and 8.008 and 23.6236 and 54.2542 and 18.6853 and 3.47 and 4.071 and 23.8906 and 5.2052 and 25.292 and 14.3477 and 82.4825
hAPP-J20 (J20) mice; [7]
  Training Latency: 120.187 (7×) and 57.324 and 40.2402 and 38.9056 and 24.3577 and 112.112
hAPP-J20 (J20) mice; [8]
  Training Latency: 29.9633 and 53.1198 and 39.8398 and 120.187 (5×) and 25.9593 and 18.018 and 115.516 and 50.6506
hAPP-J20 (J20) mice; [9]
  Training Latency: 76.4097 and 120.187 (4×) and 119.653 and 28.9623 and 60.1268 and 40.04 and 19.4861 and 56.5899 and 35.7024
hAPP-J20 (J20) mice; [10]
  Training Latency: 120.187 (4×) and 8.809 and 75.5422 and 5.405 and 4.4044 and 62.4625 and 97.631 and 17.0837 and 6.673
hAPP-J20 (J20) mice; [11]
  Training Latency: 9.943 and 27.9613 and 120.187 (4×) and 48.3817 and 113.914 and 100.968 and 49.5829 and 8.809 and 7.007
hAPP-J20 (J20) mice; [12]
  Training Latency: 120.187 (4×) and 26.8268 and 81.8819 and 75.9426 and 86.1528 and 27.8946 and 3.003 and 55.5222 and 61.4615
hAPP-J20 (J20) mice; [13]
  Training Latency: 57.3907 and 6.2062 and 120.187 (4×) and 60.327 and 28.3617 and 7.674 and 10.8108 and 57.9913 and 41.9753
